Results are given in words; binding and its absence hold for the method and conditions named. Binding seen in cells or lysates may run through a third protein. Some entries that bind do so weakly or less than the wild type.
Biological target: EP300 (human (endogenous in PC9 and A549)) (UniProt Q09472)
Experiment: co-IP; lysates of PC9 and A549 cells in IP buffer (1 mM EDTA, 20 mM HEPES, 150 mM NaCl, 0.05% sodium deoxycholate, 0.05% NP-40, protease and phosphatase inhibitors); indicated antibody and protein A/G PLUS agarose beads overnight at 4 °C; detection by Western blotting

Amino acid sequences for entries named in this document (tags omitted).
UniProt Q09472: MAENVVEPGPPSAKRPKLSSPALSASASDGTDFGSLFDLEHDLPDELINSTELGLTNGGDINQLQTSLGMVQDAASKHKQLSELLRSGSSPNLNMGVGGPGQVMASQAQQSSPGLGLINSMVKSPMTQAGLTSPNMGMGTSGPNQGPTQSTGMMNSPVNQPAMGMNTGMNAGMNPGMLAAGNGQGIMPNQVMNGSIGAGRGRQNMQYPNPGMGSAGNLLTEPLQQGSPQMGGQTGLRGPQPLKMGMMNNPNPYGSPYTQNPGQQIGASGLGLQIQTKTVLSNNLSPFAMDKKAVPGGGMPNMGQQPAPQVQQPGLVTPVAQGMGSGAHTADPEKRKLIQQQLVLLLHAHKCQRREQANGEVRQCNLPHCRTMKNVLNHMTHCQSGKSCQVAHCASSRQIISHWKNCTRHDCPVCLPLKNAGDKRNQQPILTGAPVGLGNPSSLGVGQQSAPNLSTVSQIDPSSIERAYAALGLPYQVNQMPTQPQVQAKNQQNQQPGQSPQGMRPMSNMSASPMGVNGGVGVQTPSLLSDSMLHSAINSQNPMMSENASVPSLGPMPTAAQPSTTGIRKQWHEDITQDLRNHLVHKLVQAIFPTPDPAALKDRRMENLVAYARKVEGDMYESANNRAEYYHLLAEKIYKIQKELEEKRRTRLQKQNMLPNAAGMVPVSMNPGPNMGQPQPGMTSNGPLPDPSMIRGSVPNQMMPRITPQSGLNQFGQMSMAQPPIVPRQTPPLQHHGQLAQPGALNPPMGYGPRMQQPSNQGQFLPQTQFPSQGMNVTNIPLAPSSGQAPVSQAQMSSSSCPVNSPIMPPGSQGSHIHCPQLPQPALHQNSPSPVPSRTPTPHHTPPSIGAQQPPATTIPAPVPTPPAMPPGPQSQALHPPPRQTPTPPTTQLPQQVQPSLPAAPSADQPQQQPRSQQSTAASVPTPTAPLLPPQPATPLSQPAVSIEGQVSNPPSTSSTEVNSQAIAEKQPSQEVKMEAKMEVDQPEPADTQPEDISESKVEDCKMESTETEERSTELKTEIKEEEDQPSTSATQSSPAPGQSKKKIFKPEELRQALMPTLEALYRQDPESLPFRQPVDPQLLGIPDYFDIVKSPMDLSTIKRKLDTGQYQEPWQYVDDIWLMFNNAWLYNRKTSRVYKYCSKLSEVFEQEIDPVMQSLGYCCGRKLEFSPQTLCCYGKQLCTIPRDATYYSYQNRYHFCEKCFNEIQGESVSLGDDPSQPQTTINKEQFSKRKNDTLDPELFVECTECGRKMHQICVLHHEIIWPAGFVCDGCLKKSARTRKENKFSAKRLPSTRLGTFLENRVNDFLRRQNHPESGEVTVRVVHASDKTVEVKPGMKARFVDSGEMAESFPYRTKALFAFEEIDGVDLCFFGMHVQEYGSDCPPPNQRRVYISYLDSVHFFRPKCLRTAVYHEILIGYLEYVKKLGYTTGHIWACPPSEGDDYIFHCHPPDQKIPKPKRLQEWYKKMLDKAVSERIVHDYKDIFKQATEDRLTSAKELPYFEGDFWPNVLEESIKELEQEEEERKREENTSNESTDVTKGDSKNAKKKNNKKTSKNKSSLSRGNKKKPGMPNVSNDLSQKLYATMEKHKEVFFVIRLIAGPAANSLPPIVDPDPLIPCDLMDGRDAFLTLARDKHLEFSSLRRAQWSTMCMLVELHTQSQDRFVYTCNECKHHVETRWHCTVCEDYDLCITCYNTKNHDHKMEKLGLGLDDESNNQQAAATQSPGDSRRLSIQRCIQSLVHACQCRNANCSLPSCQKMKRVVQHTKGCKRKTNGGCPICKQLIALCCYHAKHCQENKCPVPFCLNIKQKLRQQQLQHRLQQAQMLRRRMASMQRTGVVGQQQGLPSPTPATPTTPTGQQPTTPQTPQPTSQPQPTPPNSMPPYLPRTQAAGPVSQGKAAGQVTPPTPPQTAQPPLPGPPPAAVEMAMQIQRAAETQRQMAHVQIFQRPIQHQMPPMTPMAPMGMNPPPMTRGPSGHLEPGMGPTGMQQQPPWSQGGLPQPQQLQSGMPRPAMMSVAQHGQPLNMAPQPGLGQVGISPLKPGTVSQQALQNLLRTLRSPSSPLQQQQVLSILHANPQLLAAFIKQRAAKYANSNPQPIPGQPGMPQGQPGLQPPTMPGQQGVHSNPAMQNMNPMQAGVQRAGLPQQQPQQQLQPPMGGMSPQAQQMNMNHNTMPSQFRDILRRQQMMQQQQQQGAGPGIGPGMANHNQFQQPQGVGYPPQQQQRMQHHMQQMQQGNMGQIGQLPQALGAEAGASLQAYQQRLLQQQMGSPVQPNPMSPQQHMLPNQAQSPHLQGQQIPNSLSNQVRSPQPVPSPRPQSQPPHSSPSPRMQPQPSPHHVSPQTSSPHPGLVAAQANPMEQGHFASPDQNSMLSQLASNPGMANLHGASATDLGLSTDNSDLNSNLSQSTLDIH
UniProt P25490: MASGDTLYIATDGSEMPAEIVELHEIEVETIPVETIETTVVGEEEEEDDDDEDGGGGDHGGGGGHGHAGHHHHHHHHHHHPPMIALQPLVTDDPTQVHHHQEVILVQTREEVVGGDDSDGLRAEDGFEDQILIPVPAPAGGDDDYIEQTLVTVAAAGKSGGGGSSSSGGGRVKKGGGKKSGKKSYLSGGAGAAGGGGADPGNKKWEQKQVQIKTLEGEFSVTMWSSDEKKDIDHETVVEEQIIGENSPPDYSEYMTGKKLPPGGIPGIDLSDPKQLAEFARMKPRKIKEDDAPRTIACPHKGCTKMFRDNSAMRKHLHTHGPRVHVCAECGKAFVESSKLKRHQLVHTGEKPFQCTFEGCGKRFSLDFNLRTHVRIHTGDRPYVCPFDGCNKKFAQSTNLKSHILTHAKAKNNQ

For YY1 (from UniProt P25490 1-414), the binding was “binds”.

Source: article PMC10105460
